Data as given in the supplement of paper PMC10849652.
Some of the results follow.

Sequences of proteins named here, by UniProt entry; tags and fusion partners are left off. A change or cut given only in a name is not applied to a line headed by its entry.
UniProt Q8WUE5: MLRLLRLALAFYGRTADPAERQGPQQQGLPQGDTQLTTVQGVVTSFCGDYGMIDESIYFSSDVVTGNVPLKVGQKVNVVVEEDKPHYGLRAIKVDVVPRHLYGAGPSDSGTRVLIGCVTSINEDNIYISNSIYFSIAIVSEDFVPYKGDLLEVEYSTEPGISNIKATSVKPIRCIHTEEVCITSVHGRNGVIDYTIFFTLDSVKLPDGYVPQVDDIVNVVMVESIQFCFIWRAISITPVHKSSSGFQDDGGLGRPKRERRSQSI
UniProt Q12996: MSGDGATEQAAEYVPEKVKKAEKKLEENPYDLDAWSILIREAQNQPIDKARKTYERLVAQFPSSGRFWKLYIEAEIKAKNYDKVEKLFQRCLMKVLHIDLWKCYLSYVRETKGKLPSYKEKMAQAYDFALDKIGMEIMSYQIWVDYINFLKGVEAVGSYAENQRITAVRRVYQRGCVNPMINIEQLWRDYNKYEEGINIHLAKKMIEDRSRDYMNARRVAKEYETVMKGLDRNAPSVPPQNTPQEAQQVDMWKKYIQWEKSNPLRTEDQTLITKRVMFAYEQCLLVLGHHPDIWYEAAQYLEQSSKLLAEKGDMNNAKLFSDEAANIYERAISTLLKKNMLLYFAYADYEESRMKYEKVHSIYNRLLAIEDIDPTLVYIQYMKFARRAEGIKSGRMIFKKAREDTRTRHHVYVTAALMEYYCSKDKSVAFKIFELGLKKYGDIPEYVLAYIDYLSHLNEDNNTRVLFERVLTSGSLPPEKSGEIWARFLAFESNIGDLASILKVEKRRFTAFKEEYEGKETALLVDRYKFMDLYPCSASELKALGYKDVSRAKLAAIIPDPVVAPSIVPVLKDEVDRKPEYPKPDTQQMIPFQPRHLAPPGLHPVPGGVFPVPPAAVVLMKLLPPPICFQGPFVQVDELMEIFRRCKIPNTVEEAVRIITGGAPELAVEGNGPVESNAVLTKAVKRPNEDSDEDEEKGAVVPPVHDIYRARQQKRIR
UniProt P09668: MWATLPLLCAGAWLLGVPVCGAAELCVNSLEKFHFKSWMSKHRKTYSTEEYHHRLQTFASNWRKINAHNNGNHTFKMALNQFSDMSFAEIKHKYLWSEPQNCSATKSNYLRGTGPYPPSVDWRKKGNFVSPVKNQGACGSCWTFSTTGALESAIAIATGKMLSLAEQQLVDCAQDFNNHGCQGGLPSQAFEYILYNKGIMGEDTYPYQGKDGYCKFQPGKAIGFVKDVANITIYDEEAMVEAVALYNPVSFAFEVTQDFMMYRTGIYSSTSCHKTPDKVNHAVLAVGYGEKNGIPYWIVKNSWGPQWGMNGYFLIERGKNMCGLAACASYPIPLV
UniProt Q9H467: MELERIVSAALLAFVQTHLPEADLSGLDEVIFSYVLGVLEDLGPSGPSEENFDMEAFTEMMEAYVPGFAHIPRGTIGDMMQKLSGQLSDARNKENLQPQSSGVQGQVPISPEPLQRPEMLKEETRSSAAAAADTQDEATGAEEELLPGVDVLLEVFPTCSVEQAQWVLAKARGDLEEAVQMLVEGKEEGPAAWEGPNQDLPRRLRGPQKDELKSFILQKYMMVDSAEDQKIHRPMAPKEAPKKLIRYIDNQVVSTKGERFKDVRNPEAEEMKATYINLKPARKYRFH
UniProt P55060: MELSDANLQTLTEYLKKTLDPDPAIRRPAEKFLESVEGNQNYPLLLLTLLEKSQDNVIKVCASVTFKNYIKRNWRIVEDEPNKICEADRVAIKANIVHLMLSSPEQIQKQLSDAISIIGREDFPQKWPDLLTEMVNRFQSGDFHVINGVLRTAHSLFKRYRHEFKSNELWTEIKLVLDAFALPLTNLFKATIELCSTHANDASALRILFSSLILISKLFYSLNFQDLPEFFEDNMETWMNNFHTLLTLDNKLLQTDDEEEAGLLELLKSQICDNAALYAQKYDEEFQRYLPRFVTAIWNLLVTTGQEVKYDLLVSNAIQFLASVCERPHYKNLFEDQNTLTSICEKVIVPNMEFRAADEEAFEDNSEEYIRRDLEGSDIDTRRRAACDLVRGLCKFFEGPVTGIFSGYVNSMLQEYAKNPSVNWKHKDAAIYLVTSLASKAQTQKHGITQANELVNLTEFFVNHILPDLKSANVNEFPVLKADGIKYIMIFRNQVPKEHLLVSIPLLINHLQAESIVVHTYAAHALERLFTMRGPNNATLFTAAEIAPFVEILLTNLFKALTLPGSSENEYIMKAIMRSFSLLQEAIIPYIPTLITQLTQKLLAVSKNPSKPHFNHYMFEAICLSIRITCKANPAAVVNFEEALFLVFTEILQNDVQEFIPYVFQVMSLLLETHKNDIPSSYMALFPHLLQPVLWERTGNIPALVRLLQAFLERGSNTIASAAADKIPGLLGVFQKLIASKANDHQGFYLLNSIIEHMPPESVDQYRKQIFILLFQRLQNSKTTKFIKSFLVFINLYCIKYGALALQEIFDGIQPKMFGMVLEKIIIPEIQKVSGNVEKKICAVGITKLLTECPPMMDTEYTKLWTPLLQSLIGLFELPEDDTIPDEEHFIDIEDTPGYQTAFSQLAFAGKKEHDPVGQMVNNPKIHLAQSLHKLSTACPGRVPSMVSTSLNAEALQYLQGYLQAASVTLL
UniProt Q53ET0: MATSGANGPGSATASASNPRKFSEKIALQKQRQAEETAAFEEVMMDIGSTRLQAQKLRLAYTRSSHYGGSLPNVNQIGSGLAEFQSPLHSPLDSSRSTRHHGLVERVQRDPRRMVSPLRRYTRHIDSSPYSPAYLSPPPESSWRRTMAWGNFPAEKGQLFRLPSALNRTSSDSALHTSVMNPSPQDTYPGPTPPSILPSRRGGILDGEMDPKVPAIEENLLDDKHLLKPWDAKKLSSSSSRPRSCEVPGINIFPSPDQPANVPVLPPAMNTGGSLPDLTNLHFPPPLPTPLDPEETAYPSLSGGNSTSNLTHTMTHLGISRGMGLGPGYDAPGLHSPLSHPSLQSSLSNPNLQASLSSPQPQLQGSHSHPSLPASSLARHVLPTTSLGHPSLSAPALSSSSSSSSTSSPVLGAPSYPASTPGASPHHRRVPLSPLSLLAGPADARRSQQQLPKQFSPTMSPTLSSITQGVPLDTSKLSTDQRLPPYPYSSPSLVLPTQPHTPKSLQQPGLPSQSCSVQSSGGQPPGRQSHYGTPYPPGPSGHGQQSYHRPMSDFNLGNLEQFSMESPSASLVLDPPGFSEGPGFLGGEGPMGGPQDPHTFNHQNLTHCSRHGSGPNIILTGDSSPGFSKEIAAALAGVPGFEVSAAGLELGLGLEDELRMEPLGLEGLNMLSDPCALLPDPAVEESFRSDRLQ
UniProt Q9BZJ0: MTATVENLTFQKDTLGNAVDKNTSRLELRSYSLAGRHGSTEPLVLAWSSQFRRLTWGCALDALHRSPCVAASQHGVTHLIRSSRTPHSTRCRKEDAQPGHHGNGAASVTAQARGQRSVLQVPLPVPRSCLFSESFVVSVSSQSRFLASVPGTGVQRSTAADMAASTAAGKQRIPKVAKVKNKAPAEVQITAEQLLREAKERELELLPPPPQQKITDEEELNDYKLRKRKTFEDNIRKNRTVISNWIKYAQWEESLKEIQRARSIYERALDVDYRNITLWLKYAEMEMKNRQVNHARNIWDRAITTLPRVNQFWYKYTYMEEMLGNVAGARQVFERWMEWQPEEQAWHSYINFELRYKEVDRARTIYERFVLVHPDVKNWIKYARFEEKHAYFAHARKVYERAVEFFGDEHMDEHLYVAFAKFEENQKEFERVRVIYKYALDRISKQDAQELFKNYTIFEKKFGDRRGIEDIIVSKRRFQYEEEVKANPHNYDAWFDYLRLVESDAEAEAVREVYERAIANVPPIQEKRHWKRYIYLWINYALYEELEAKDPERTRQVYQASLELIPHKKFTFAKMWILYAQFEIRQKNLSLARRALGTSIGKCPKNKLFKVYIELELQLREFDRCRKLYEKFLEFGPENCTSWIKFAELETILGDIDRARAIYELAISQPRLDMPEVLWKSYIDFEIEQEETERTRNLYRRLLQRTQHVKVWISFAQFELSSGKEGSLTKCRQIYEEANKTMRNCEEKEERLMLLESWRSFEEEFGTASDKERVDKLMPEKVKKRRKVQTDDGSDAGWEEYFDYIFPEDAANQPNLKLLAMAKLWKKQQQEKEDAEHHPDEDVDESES
UniProt Q9P0U4, whole entry, looked up: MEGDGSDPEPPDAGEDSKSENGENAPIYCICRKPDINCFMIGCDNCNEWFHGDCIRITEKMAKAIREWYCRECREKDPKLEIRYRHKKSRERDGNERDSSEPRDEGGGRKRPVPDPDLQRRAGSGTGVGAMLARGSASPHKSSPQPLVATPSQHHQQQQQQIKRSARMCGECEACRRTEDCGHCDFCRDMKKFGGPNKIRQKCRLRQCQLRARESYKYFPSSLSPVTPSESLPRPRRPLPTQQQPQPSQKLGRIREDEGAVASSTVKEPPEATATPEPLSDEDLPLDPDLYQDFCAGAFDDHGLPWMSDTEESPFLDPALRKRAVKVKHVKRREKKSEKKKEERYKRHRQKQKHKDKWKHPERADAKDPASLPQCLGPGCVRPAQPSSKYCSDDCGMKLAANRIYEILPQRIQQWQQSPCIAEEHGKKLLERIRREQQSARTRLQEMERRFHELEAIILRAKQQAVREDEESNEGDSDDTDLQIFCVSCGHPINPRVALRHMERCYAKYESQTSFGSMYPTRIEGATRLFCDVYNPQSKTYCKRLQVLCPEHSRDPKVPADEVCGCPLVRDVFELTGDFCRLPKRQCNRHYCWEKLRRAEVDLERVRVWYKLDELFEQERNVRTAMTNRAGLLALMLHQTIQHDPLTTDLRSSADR
UniProt Q96F07, whole entry, looked up: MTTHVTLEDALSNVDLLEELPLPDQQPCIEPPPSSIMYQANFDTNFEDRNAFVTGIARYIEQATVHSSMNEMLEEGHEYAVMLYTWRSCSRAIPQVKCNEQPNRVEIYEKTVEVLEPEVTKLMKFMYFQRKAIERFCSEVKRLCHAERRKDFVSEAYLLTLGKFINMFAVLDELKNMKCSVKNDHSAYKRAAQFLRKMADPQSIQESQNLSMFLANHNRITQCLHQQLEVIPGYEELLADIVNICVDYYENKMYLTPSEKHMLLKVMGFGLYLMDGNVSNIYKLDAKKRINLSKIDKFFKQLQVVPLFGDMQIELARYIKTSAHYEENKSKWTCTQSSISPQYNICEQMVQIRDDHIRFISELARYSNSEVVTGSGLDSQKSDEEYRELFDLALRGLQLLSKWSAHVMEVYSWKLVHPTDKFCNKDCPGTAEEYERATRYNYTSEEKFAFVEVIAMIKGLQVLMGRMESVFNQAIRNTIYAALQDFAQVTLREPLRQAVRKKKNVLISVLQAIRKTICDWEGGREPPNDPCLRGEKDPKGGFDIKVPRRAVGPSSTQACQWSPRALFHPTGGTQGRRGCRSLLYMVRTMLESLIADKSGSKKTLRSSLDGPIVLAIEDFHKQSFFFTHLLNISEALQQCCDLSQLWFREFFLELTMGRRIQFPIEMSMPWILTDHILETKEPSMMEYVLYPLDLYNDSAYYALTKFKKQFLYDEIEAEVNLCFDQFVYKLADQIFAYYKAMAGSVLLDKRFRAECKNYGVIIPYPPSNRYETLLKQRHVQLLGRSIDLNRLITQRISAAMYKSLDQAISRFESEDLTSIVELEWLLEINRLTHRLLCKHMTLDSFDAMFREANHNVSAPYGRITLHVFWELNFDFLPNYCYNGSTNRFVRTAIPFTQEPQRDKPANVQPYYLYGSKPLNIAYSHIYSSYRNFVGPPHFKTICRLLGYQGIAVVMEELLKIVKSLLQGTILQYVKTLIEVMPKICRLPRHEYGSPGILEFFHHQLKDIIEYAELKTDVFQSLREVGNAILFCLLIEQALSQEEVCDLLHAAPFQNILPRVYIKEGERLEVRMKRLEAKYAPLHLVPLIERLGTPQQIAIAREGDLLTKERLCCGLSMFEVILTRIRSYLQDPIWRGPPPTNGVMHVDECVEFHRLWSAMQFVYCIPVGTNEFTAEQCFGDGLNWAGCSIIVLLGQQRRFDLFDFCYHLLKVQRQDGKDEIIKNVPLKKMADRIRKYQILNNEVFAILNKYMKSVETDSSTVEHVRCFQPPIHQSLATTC
UniProt P13498: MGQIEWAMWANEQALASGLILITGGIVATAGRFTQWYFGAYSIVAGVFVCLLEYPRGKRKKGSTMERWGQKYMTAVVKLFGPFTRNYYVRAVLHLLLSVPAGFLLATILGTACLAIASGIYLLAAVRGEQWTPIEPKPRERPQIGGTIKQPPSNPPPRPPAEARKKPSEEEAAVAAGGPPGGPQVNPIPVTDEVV
UniProt O43169: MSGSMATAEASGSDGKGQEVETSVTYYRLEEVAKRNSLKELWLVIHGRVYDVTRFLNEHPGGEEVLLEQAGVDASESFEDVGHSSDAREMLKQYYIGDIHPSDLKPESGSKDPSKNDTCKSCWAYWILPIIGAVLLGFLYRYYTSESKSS

Key:
Test in all cases: log2 fold change, soluble protein after heating vs DMSO (PISA); higher = thermal stabilisation; K562 lysate, 10 uM; active = over 0.2 and 3.5 SD of the protein, either way, in both replicates (recomputed)
[1] = compound: C#Cc1cccc(Nc2ncnc3cc(OCCOC)c(OCCOC)cc23)c1 [erlotinib]
Outline: (§1)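 Soluble protein was defined as the supernatant remaining after 21,000xg for 90 min, following pooling of heated aliquots and adjustment to 0.5% NP-40 at 4°C. Before that, crude K562 extract at 1 mg/mL protein in PBS pH 7.4 with 1 mM MgCl2 was treated with 10 μM compound for 30 min and heated for 3 min across 48°C-58°C. Quantification used TMTpro 16plex LC-MS/MS with channel sums equalised, and values are log-two fold changes in thermal stability relative to solvent controls from duplicates.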

[2] = compound: C/C(=N\NC(=O)C1=CC(=CC=C1)S(=O)(=O)N2CCOCC2)/C3=C(C=CC(=C3)Cl)O
Outline: as §1

[3] = compound: C1=CC(=CC=C1C2=NC3=C(N2)C=C(C=C3)C(=O)N)OC4=CC=C(C=C4)Cl
Outline: as §1

[4] = compound: C1=CC2=C(C=CC(=C2)/C=C\3/C(=O)NC(=NCC4=CC=CS4)S3)N=C1
Outline: as §1

[5] = compound: C1=CC2=NC=CN=C2C=C1/C=C/3\C(=O)NC(=O)S3
Outline: as §1

[6] = compound: C1=CC=C(C=C1)C2=NC(=C(N2)C3=CC=NC=C3)C4=CC(=C(C=C4)Cl)O
Outline: as §1

[7] = compound: C1=CC=C2C(=C1)C3=NNC4=CC=CC(=C43)C2=O
Outline: as §1

[8] = compound: C1CCN(C1)C(=O)NC2=CC=CC(=C2)NC3=NC=C(C(=N3)NCCC4=CN=CN4)Br
Outline: as §1

[9] = compound: C1CN(CCC1(CC2=CC=C(C=C2)Cl)N)C3=NC=NC4=C3C=CN4
Outline: as §1

[10] = compound: C1COCCN1CCN2C3=CC=CC=C3N=C2NC(=O)C4=CC(=CC=C4)[N+](=O)[O-] [IRAK-1-4 Inhibitor I]
Outline: as §1

[11] = compound: C=CC(=O)N1CCC[C@@H](n2nc(-c3ccc(Oc4ccccc4)cc3)c3c(N)ncnc32)C1 [ibrutinib]
Outline: as §1

[12] = compound: CC(=O)c1cnc2ccc(-c3cc(Cl)c(O)c(Cl)c3)nc2c1N[C@H]1CC[C@H](CN(C)C)CC1
Outline: as §1

[13] = compound: CC(C)(C)Cn1c(N)nc2ccc(-c3[nH]c(C(C)(C)C)nc3-c3ccc(F)cc3)nc21 [ralimetinib]
Outline: as §1

[14] = compound: CC(C)(O)CC(=O)NCCn1ccc2ncnc(Nc3ccc(Oc4cccc(C(F)(F)F)c4)c(Cl)c3)c21
Outline: as §1

[15] = compound: CC(C)C1=C2N=C(C=C(N2N=C1)NCC3=CC=CC=C3)NCCCCCCN
Outline: as §1

[16] = compound: CC1=C(C(CC(=O)N1)C2=CC=C(C=C2)C(F)(F)F)C(=O)NC3=C(C=C4C(=C3)C=NN4)F
Outline: as §1

[17] = compound: CC1=C(C2=C(C=C1)C(=O)C3=CC=CC=C3N2CCCN)C
Outline: as §1

[18] = compound: CC1=C(C=C(C=C1)NC(=O)C2=CC(=CC=C2)C(C)(C)C#N)NC3=CC4=C(C=C3)N=CN(C4=O)C
Outline: as §1

[19] = compound: CC1=C(C=C(C=C1)NC(=O)C2=CC(=CC=C2)N(C)C)NC(=O)C3=CC=C(C=C3)O
Outline: as §1

[20] = compound: CC1=CC=C(C=C1)SC2=C3C=C(SC3=CN=C2)C(=O)N
Outline: as §1

Measured: log2 fold change

CYB5R1 (UniProt Q9UHQ9)
inactive: [1] 0.022 | [2] 0.024 | [3] 0.1 | [4] -0.053 | [5] -0.136 | [6] -0.042 | [7] 0.049 | [8] -0.024 | [9] 0.026 | [10] 0.043 | [11] -0.051 | [12] 0.006 | [13] 0.051 | [14] -0.097 | [15] 0.01 | [16] -0.071 | [17] 0.012 | [18] -0.038 | [19] 0.023 | [20] -0.012

CT55 (UniProt Q8WUE5)
inactive: [1] 0.082 | [2] -0.018 | [3] -0.007 | [4] 0 | [5] 0.05 | [6] 0.036 | [7] -0.014 | [8] -0.008 | [9] -0.038 | [10] 0.005 | [11] -0.029 | [12] -0.082 | [13] -0.072 | [14] -0.069 | [15] -0.01 | [16] 0.057 | [17] 0.035 | [18] -0.051 | [19] 0.028 | [20] -0.022

CSTF3 (UniProt Q12996)
inactive: [1] -0.005 | [2] 0.019 | [3] 0.01 | [4] -0.001 | [5] -0.028 | [6] -0.027 | [7] 0.005 | [8] -0.018 | [9] 0.012 | [10] -0.023 | [11] -0.017 | [12] 0.011 | [13] -0.006 | [14] 0.011 | [15] 0.001 | [16] -0.006 | [17] 0.048 | [18] 0 | [19] -0.003 | [20] 0.019

CYFIP1 (UniProt Q7L576)
inactive: [1] -0.01 | [2] -0.011 | [3] 0.018 | [4] -0.009 | [5] 0.027 | [6] -0.047 | [7] -0.032 | [8] -0.005 | [9] 0.057 | [10] 0 | [11] 0.006 | [12] -0.003 | [13] 0.014 | [14] -0.002 | [15] -0.024 | [16] -0.004 | [17] 0.011 | [18] -0.012 | [19] -0.019 | [20] -0.008

CTSH (UniProt P09668)
inactive: [1] 0.039 | [2] 0.004 | [3] 0.038 | [4] 0 | [5] -0.004 | [6] 0.019 | [7] 0.007 | [8] 0.018 | [9] 0.044 | [10] -0.04 | [11] 0.044 | [12] -0.004 | [13] -0.037 | [14] -0.09 | [15] -0.007 | [16] 0.008 | [17] 0.015 | [18] -0.028 | [19] 0.006 | [20] -0.004

CYC1 (UniProt P08574)
inactive: [1] 0.001 | [2] 0.026 | [3] -0.04 | [4] 0.012 | [5] -0.014 | [6] 0.029 | [7] 0.116 | [8] 0.053 | [9] -0.056 | [10] -0.012 | [11] 0.079 | [12] 0.047 | [13] 0.012 | [14] -0.01 | [15] -0.028 | [16] -0.051 | [17] 0.065 | [18] -0.044 | [19] -0.058 | [20] 0.096

CUEDC2 (UniProt Q9H467)
inactive: [1] -0.011 | [2] 0.044 | [3] 0.032 | [4] 0.035 | [5] -0.02 | [6] 0 | [7] -0.039 | [8] 0.029 | [9] -0.106 | [10] 0.013 | [11] 0.056 | [12] 0.044 | [13] 0.001 | [14] -0.032 | [15] 0.026 | [16] -0.027 | [17] -0.014 | [18] 0.052 | [19] 0.018 | [20] -0.082

CSE1L (UniProt P55060)
inactive: [1] 0.034 | [2] 0.034 | [3] -0.006 | [4] 0.004 | [5] 0.023 | [6] -0.019 | [7] -0.016 | [8] -0.018 | [9] 0.012 | [10] 0.011 | [11] -0.019 | [12] 0.007 | [13] 0.003 | [14] -0.057 | [15] -0.025 | [16] -0.022 | [17] 0.002 | [18] -0.005 | [19] 0.015 | [20] 0.019

CRTC2 (UniProt Q53ET0)
inactive: [1] -0.009 | [2] -0.155 | [3] 0.071 | [4] 0.011 | [5] 0.021 | [6] 0.007 | [7] -0.09 | [8] -0.085 | [9] -0.06 | [10] 0.054 | [11] -0.069 | [12] -0.108 | [13] 0.01 | [14] -0.026 | [15] 0.018 | [16] 0 | [17] -0.016 | [18] 0.007 | [19] 0.032 | [20] -0.136

Two successive entries already listed:
CSTF3 (UniProt Q12996)
inactive: [1] -0.005 | [2] 0.019 | [3] 0.01 | [4] -0.001 | [5] -0.028 | [6] -0.027 | [7] 0.005 | [8] -0.018 | [9] 0.012 | [10] -0.023 | [11] -0.017 | [12] 0.011 | [13] -0.006 | [14] 0.011 | [15] 0.001 | [16] -0.006 | [17] 0.048 | [18] 0 | [19] -0.003 | [20] 0.019

CYFIP1 (UniProt Q7L576)
inactive: [1] -0.01 | [2] -0.011 | [3] 0.018 | [4] -0.009 | [5] 0.027 | [6] -0.047 | [7] -0.032 | [8] -0.005 | [9] 0.057 | [10] 0 | [11] 0.006 | [12] -0.003 | [13] 0.014 | [14] -0.002 | [15] -0.024 | [16] -0.004 | [17] 0.011 | [18] -0.012 | [19] -0.019 | [20] -0.008

More records

CRNKL1 (UniProt Q9BZJ0)
inactive: [1] -0.102 | [2] 0.052 | [3] -0.097 | [4] 0.013 | [5] 0.042 | [6] -0.027 | [7] -0.026 | [8] -0.048 | [9] 0.021 | [10] -0.164 | [11] 0.029 | [12] 0.008 | [13] 0.062 | [14] 0.006 | [15] -0.064 | [16] 0.028 | [17] -0.013 | [18] -0.218 | [19] 0.096 | [20] 0.03

CRPPA (UniProt A4D126)
inactive: [1] -0.009 | [2] -0.006 | [3] -0.001 | [4] 0.032 | [5] -0.026 | [6] -0.012 | [7] -0.007 | [8] 0.01 | [9] -0.032 | [10] 0.063 | [11] 0.005 | [12] 0.006 | [13] 0.003 | [14] -0.036 | [15] -0.007 | [16] -0.018 | [17] -0.009 | [18] 0.02 | [19] -0.015 | [20] -0.012

CUX1 isoform 3 (UniProt P39880)
inactive: [1] -0.015 | [2] -0.017 | [3] -0.007 | [4] 0.03 | [5] -0.049 | [6] -0.039 | [7] 0.003 | [8] -0.004 | [9] 0.07 | [10] 0.014 | [11] 0.073 | [12] 0.002 | [13] 0.003 | [14] -0.061 | [15] 0.017 | [16] -0.022 | [17] 0.003 | [18] -0.051 | [19] 0.012 | [20] 0.005

CXXC1 isoform 2 (UniProt Q9P0U4)
inactive: [1] 0.02 | [2] -0.031 | [3] -0.051 | [4] 0.029 | [5] -0.085 | [6] -0.036 | [7] -0.088 | [8] 0.082 | [9] 0.04 | [10] 0.059 | [11] -0.034 | [12] -0.078 | [13] 0.013 | [14] -0.089 | [15] -0.005 | [16] -0.01 | [17] 0.082 | [18] 0.004 | [19] 0.061 | [20] -0.155

CYFIP2 (UniProt Q96F07)
inactive: [1] -0.005 | [2] 0.142 | [3] 0.026 | [4] 0.037 | [5] -0.001 | [6] 0.022 | [7] -0.002 | [8] -0.027 | [9] 0.008 | [10] 0.007 | [11] 0 | [12] -0.013 | [13] 0.026 | [14] -0.006 | [15] -0.008 | [16] -0.005 | [17] 0.012 | [18] -0.013 | [19] -0.005 | [20] -0.003

CYBA (UniProt P13498)
inactive: [1] -0.02 | [2] 0.084 | [3] -0.165 | [4] 0 | [5] -0.002 | [6] -0.03 | [7] -0.037 | [8] -0.045 | [9] 0.019 | [10] 0.012 | [11] 0.051 | [12] 0.02 | [13] -0.007 | [14] -0.081 | [15] 0.08 | [16] -0.006 | [17] 0.016 | [18] -0.011 | [19] 0.026 | [20] -0.008

CYB5B (UniProt O43169)
inactive: [1] 0.009 | [2] 0.007 | [3] 0 | [4] -0.016 | [5] -0.037 | [6] -0.065 | [7] -0.016 | [8] -0.024 | [9] 0.085 | [10] 0.016 | [11] 0.111 | [12] -0.007 | [13] 0.025 | [14] -0.049 | [15] -0.046 | [16] 0.004 | [17] -0.139 | [18] 0.049 | [19] -0.057 | [20] 0.048
